In the supplement of paper PMC11006884:
The targets with a hit were mostly taken out for another list; the other results follow. This is a noisy data set. Only a part is listed here, and it is no random draw.

Sequences of proteins named here, by UniProt entry; tags and fusion partners are left off. A change or cut given only in a name is not applied to a line headed by its entry.
UniProt P12270, whole entry, looked up: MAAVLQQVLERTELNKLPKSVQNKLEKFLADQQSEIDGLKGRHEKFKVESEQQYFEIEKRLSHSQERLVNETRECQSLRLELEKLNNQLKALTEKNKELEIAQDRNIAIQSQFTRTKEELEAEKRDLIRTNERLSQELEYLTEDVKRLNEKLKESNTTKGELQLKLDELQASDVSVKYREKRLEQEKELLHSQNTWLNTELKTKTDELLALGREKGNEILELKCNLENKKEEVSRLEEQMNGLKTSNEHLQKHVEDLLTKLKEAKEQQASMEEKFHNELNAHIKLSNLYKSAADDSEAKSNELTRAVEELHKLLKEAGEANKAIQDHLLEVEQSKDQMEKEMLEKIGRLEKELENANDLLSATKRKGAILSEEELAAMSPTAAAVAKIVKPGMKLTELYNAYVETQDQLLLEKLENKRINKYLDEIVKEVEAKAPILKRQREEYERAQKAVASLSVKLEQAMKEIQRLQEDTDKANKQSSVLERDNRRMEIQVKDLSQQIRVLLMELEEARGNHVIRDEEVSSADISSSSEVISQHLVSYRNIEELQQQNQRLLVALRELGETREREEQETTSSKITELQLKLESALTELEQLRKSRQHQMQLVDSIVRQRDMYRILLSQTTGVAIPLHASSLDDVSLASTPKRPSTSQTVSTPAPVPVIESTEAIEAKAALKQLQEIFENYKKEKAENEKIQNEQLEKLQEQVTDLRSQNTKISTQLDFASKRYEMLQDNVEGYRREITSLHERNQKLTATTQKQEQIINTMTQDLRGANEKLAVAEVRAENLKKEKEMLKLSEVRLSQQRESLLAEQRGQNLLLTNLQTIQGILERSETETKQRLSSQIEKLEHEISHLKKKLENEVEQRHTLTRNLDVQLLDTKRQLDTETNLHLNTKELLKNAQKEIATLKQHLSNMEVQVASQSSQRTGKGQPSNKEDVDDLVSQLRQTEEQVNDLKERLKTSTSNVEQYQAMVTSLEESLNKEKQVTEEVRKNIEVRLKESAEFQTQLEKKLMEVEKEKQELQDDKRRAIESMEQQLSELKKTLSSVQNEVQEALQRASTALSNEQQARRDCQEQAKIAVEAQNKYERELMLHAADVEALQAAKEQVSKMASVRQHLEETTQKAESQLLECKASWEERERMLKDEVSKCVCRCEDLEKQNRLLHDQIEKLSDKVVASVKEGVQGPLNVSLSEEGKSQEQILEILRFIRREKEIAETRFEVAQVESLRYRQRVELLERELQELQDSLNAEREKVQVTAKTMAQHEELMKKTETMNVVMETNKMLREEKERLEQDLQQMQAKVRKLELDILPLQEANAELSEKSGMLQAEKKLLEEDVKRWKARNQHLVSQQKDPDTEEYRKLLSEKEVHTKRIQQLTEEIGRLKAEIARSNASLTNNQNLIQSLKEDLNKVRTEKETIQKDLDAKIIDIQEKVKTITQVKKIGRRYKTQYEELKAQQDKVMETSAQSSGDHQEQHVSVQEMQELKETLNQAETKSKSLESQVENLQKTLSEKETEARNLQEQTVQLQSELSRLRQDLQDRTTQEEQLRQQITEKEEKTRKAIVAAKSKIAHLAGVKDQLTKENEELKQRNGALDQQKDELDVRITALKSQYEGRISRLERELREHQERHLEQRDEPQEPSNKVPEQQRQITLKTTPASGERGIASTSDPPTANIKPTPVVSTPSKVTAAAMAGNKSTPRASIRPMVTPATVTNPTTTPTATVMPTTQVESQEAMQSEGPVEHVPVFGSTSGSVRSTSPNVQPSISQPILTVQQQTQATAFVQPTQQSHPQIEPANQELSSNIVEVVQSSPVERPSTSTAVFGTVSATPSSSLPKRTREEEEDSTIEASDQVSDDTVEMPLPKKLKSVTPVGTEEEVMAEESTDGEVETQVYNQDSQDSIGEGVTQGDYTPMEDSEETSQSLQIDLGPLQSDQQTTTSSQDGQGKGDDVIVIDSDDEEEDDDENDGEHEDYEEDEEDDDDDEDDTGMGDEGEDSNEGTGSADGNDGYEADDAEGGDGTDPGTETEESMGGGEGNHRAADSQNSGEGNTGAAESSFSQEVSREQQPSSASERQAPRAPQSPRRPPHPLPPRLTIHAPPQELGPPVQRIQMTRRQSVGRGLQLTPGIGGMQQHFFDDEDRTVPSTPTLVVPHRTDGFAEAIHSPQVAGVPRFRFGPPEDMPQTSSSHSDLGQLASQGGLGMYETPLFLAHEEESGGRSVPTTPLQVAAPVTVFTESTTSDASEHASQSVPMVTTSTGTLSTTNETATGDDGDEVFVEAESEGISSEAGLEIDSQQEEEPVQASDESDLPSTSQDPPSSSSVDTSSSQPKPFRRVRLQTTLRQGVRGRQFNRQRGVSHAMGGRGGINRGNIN
UniProt P12236: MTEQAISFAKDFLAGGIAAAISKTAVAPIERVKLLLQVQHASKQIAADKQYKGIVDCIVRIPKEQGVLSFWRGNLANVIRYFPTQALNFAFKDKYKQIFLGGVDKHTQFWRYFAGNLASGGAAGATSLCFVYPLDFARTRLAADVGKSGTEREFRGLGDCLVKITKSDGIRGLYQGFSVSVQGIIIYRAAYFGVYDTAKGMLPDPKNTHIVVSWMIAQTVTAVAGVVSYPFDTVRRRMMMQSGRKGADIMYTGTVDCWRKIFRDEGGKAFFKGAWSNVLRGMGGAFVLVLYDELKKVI
UniProt P13861, whole entry, looked up: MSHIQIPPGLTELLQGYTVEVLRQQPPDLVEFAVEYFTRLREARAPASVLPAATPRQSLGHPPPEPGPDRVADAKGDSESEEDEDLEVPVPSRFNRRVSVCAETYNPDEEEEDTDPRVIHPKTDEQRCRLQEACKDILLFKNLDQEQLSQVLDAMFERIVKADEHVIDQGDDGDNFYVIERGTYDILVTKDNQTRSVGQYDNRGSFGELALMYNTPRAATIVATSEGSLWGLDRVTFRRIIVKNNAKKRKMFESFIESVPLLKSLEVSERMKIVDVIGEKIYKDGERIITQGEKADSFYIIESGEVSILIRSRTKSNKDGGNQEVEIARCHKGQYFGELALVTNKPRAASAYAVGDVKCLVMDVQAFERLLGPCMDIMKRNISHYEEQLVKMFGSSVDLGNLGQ
UniProt P15104, whole entry: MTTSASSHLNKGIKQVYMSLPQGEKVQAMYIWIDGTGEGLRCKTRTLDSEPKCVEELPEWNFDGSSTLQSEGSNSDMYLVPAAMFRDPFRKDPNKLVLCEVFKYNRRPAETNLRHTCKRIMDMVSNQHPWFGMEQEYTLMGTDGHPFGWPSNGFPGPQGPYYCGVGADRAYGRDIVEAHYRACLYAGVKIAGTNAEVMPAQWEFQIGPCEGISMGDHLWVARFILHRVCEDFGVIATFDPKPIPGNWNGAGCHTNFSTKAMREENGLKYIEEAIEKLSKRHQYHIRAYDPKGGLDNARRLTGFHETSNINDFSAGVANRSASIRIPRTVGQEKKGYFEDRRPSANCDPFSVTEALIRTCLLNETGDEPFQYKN
UniProt P15311, whole entry, looked up: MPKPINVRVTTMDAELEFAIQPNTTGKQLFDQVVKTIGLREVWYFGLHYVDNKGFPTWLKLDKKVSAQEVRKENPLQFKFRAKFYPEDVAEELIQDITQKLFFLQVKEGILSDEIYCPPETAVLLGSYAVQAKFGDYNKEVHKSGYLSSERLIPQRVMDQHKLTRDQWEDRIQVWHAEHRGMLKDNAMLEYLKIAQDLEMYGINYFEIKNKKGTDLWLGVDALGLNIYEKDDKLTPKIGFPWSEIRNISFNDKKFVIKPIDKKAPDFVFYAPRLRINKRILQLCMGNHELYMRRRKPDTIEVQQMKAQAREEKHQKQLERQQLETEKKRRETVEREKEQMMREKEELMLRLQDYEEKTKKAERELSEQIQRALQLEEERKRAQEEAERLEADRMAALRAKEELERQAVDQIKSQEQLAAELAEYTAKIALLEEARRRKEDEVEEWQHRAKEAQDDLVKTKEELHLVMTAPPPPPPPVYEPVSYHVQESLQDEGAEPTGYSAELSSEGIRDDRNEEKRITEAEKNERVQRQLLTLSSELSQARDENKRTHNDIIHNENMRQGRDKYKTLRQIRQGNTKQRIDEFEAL
UniProt P16930: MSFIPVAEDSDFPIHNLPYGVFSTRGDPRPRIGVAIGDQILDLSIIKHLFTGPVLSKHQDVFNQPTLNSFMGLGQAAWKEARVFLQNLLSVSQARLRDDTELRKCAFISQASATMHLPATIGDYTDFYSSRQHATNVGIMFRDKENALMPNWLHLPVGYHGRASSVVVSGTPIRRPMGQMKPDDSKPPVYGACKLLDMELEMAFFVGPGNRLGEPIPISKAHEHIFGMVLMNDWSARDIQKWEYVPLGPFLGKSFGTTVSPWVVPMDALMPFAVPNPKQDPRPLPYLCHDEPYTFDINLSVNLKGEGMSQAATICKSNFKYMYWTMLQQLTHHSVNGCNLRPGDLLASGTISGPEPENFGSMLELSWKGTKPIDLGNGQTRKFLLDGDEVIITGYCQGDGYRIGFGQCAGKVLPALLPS
UniProt P17812: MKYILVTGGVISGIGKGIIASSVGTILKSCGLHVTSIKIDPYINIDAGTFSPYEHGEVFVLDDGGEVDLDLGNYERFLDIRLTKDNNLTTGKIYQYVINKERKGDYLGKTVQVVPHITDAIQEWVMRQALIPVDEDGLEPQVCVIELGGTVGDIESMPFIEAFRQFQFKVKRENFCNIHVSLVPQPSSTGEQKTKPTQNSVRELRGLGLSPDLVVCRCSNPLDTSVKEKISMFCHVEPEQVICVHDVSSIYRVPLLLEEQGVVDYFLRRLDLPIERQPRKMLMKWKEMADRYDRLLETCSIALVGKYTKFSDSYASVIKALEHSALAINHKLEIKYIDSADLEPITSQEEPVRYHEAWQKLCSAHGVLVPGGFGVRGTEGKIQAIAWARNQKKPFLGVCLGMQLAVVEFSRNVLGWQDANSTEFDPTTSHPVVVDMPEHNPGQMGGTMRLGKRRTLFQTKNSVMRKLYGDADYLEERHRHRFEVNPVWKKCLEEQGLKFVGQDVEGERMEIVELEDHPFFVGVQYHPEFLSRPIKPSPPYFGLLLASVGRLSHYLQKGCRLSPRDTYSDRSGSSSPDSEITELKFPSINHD
UniProt P13489: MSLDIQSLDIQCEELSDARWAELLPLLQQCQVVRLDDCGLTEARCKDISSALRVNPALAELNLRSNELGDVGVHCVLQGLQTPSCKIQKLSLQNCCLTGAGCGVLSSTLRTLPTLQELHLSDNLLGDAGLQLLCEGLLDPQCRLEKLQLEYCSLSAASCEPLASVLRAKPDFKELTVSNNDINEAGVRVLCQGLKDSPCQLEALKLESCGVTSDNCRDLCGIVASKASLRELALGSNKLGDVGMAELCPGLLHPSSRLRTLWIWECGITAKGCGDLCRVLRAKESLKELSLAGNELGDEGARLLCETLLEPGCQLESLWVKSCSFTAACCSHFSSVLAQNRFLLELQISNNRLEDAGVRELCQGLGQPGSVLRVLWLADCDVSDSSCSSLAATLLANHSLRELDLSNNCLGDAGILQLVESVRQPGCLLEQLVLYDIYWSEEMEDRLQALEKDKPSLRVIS
UniProt P08243: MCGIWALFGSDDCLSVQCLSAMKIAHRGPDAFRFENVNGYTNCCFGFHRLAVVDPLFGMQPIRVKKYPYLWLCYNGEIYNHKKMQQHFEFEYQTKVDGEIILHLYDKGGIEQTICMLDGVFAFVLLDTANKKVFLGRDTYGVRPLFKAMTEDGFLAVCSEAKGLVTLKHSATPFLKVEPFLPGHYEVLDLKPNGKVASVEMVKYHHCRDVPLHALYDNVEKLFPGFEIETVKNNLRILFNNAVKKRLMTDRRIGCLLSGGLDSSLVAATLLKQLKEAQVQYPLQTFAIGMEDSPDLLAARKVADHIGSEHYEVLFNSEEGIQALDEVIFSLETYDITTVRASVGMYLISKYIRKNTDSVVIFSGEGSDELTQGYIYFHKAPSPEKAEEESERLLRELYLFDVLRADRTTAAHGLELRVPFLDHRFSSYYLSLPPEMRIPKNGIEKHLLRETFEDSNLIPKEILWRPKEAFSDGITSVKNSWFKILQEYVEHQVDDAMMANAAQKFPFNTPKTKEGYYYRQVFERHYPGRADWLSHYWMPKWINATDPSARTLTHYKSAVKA
UniProt P07954: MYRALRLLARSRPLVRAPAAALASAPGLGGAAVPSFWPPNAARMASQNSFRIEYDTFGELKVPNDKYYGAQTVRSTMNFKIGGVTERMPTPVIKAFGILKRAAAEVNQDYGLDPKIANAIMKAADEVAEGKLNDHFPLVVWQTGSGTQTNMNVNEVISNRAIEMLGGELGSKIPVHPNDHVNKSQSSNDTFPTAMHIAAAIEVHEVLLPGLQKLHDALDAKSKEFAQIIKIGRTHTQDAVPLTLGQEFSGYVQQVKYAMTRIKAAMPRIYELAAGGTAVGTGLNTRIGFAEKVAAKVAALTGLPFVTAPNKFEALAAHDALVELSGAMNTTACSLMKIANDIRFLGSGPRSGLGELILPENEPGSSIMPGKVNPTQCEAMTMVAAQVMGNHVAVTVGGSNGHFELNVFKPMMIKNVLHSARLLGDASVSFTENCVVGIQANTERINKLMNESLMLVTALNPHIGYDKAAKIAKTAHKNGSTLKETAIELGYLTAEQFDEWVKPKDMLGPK

compound: COC(=O)/C=C/c1ccccc1 [methyl cinnamate]; assay: log2 ratio of iodoacetamide-alkyne labeling of the cysteine site, DMSO over compound (competition); higher = stronger covalent engagement of the cysteine by the compound, active = 1 or more; settings: 500 µM; treatment time 1 h; system: HEK293T cell lysate
Method in brief: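 For each cysteine, the log2 competition ratio is mean control-channel reporter intensity over mean compound-channel reporter intensity. HEK293T lysate (2 mg/mL) was exposed to vehicle or electrophile (500 µM, 1 h, ambient temperature), labelled with iodoacetamide alkyne (1 h), clicked to sCIP-TMT reagents, digested overnight with trypsin at 37 °C, streptavidin-enriched and analysed by Orbitrap Eclipse LC-MS/MS with FAIMS and FragPipe. Cysteines quantified in only one of three replicates, each with duplicate channels, were excluded.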

log2 ratio of iodoacetamide-alkyne labeling, inactive:
TPR C75 (UniProt P12270) 0.336
SLC25A6 C257 (UniProt P12236) 0.128
G6PD C385 (UniProt P11413) 0.152
PRKAR2A C101 (UniProt P13861) 0.313
GLUL C359 (UniProt P15104) 0.315
APEH C30 (UniProt P13798) -0.0282
EZR C284 (UniProt P15311) 0.0279
UniProt P0DMV8_C17 0.0864
FAH C105 (UniProt P16930) 0.202
UniProt P17812_C243 -0.112
UniProt P0DN79_C15 0.247
RNH1 C96 (UniProt P13489) 0.331
ASNS C158 (UniProt P08243) -0.074
UniProt P17812_C218 -0.00243
FH C333 (UniProt P07954) 0.387

Copied from above (two entries):
log2 ratio of iodoacetamide-alkyne labeling, inactive:
APEH C30 (UniProt P13798) -0.0282
EZR C284 (UniProt P15311) 0.0279
